Measurements: article PMC4265151
Results are given in words; binding and its absence hold for the method and conditions named. A result given as binding can be weak or reduced; the word gives no strength.

Amino acid sequences for entries named in this document (tags omitted). A change or cut given only in a name is not applied to a line headed by its entry.
UniProt Q9CAL8: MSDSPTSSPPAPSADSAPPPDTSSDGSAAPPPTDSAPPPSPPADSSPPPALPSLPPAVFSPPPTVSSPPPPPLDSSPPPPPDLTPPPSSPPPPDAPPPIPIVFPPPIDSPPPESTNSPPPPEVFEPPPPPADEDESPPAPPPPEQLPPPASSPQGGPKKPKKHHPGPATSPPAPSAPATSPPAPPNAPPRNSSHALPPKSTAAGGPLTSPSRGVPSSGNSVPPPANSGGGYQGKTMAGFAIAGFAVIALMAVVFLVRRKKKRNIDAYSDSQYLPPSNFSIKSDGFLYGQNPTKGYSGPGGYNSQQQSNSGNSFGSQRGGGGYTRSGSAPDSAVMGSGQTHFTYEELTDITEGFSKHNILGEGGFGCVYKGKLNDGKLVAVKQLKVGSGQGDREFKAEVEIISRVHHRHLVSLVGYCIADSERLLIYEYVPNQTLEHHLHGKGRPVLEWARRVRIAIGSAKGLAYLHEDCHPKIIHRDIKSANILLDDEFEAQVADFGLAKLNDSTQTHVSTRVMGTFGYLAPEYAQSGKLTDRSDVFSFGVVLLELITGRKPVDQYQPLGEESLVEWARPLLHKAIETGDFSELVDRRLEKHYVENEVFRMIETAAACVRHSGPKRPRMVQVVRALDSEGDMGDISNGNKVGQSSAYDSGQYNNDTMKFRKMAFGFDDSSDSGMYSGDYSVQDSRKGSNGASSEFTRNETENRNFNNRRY
UniProt Q9FFW5: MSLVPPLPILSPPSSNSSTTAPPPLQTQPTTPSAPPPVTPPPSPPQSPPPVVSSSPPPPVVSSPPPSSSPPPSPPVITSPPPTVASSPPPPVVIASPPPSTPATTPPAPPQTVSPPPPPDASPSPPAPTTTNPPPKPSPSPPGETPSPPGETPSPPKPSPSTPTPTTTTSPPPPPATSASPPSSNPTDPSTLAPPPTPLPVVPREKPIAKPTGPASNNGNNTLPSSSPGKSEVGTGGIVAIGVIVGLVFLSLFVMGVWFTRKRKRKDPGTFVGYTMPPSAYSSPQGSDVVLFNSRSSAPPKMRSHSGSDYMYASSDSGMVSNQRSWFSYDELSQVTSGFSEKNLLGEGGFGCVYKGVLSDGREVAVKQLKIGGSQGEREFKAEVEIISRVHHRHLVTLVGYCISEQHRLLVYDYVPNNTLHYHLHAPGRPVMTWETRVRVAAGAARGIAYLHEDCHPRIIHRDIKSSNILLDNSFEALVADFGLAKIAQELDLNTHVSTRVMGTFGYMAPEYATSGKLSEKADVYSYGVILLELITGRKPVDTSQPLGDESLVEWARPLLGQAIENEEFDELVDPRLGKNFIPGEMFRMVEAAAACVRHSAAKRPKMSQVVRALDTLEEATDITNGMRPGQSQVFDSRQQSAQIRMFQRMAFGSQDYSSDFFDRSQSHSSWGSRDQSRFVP
UniProt Q9SX31: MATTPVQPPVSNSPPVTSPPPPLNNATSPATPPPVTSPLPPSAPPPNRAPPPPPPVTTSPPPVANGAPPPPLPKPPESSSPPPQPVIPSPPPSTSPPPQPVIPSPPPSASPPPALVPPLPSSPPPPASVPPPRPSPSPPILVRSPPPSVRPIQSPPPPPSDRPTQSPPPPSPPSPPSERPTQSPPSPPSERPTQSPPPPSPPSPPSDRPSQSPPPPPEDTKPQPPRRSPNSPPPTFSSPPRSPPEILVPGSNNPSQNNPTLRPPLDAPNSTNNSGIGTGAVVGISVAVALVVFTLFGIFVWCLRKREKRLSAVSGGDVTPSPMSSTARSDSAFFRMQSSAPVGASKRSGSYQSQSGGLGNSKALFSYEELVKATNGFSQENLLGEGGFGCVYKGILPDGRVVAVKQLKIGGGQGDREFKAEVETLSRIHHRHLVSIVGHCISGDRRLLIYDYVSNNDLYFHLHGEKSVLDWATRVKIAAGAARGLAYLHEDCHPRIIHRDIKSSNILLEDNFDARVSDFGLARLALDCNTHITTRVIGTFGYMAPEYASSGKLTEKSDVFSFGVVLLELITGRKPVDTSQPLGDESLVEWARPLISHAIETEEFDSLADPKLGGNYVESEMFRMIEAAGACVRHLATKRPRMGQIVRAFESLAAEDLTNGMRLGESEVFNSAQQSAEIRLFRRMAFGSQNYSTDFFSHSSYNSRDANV
UniProt Q9C660: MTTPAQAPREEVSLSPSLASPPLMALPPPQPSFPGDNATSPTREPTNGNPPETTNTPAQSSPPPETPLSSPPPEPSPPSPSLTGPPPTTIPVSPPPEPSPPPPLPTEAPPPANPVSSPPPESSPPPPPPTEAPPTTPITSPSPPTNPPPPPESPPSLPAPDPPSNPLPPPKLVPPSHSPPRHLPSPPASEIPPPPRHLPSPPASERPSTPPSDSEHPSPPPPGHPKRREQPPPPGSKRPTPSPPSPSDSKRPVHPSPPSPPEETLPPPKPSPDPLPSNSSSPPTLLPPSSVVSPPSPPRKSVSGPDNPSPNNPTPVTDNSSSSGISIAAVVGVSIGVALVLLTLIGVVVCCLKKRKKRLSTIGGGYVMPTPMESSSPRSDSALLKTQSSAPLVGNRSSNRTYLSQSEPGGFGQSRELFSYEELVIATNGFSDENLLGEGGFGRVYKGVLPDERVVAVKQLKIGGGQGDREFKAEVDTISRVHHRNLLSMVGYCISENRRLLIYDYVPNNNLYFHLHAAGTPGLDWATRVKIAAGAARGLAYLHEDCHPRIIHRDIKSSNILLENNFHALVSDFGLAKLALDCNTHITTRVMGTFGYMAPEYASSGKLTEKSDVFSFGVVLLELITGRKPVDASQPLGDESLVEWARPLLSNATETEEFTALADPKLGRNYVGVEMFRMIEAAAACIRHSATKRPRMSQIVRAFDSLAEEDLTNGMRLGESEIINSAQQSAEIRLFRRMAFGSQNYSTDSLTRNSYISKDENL

B1: KIPK1_(84–582) (domain or fragment, UniProt Q9LFA2 84-582)
chain: SAGPSRTTSPSKRIASMKKPGTPQSPRFVGLSDSVSLKQALRDRCISKASEMAAQKRLSKSAAASPRVSEADRIKSLYNQVSNESTSSRSGLVPVDKGKGSLVEIPLMPVNDKPSSSKSVPQRFEDPSNPISEPSQAGTSFGLQGVGNQTREIKLLHRSNKPGSCLSSGSGDYEIELDENVASPSTHAFVEDDVIEIDKHVTSLPSHSSKKVNATELDKNISSSAVDSEQKGKLDDAPNSGTENGKTVRKVTRMIPRPKQPKKKILLKKKLKIGVVSATYPTKDDEEIVPSLDSSANQLLCQRCHCSLKSTSIDDNPPSYTSSHNPKICTDSLSSVSNKEAHQGSDENSSGSCNVSQSSEADIVIMKQDVSSSNNSGIGAMVEKETENPTSSEKFEFSLSSKDSLGDYSRSTSISEESNLSRFSCGNKPHMSMDVRWEAIKHIKVQYGSLGLRHFNLLKKLGCGDIGTVYLAELIGTNCLFAIKVMDNEFLARRKKSPR
B2: KIPK1_(303–934) (domain or fragment, UniProt Q9LFA2 303-934)
chain: NISSSAVDSEQKGKLDDAPNSGTENGKTVRKVTRMIPRPKQPKKKILLKKKLKIGVVSATYPTKDDEEIVPSLDSSANQLLCQRCHCSLKSTSIDDNPPSYTSSHNPKICTDSLSSVSNKEAHQGSDENSSGSCNVSQSSEADIVIMKQDVSSSNNSGIGAMVEKETENPTSSEKFEFSLSSKDSLGDYSRSTSISEESNLSRFSCGNKPHMSMDVRWEAIKHIKVQYGSLGLRHFNLLKKLGCGDIGTVYLAELIGTNCLFAIKVMDNEFLARRKKSPRAQAEREILKMLDHPFLPTLYAQFTSDNLSCLVMEYCPGGDLHVLRQKQLGRCFPEPAARFYVAEILLALEYLHMLGIIYRDLKPENILVREDGHIMLTDFDLSLRCAVNPTLVRSNSPPGKDPARISGPYNTSNCIQPFCITEPSCQVSCFSPRLSSNQQQGRKPKRGDHLSKTQQHLSRSLPQLVAEPTEARSNSFVGTHEYLAPEIIKGEGHGAAVDWWTFGVLLYELLYGKTPFKGYNNDETLANVVLQNLKFPDSPLVSFQAKDLIRGLLVKEPENRLGSEKGSVEIKRHPFFEGLNWALIRCAIPPELPDFYEYGGGPEAAADSPGGSNNRYLECKAIGDHLEFELF
B3: KIPK2_(277–948) (domain or fragment, UniProt Q9SJM3 277-948)
chain: PHMVIEDQLVEIDKHVTSLPSCSGSKVDTEELDKSIVSSARVKSEPTALSSGLKGKLDNFPGSGTEKSKLVSKVTRNIPRPKPRPKKKILLKKKLKIVVNSATKMVEEVDTSLEPSASQLLCQKCHCAVKSTSTENHPPSNTSHTTDKNVSIEADQESLASPRLIRIVKCNKEASKGSSDSCEVSDSGEAVIVMKQEVSPSNYSGKGDADEQIRANPTSSEKFDFSLSSKNSLGDYSSSTSMSEESNLSRFSCGNKPHMSMDVRWEAVKHVKLQYGSLGLRHFNLLKKLGCGDIGTVYLAELVGTNCLFAIKVMDNEFLARRKKTPRAQAERAILKMLDHPFLPTLYAQFTSDNLSCLVMEYCPGGDLHVLRQKQLSRCFSEPATRFYVAEILLALEYLHMLGVIYRDLKPENILVREDGHIMLTDFDLSLRCAVNPTLLRSTSPPEKDPARMSGPYSTSNCIQPLCIEPSCRVPCFSPRLLSTQARNQKPRKPKRPDLLTQQFRSLPQLVAEPTEARSNSFVGTHEYLAPEIIKGEGHGAAVDWWTFGVLLYELLYGKTPFKGYDNEETLSNVVYQNLKFPDSPLVSFQAKELIRRLLVKDPESRLGSEKGAAEIKRHPFFEGLNWALIRCAIPPELPDIYDNGATEATSPEGNNRYLECKAIGDHLEFEL

The binders below were run against PERK13 cytosolic kinase domain (Arabidopsis thaliana) (UniProt Q9CAL8) (assay: two-hybrid; pairwise: pGBKT7 (GAL4 DNA-binding domain) and pGADT7 (GAL4 activation domain) plasmids in yeast Y187, SD-Leu-Trp; filter lifts for beta-galactosidase with X-Gal (blue colour); negatives monitored for up to 24 h, PERK8 and -9 transformants for shorter times because of some background activity).

| Binder | binding |
| --- | --- |
| B1 | binds |
| B2 | no binding |
| B3 | no binding |

Each binder was assayed against PERK8 cytosolic kinase domain (Arabidopsis thaliana) (UniProt Q9FFW5) in the same assay as above.

| Binder | binding |
| --- | --- |
| B1 | binds |
| B2 | no binding |
| B3 | no binding |

The binders below were run against PERK9 cytosolic kinase domain (Arabidopsis thaliana) (UniProt Q9SX31) in the same assay as above.

| Binder | binding |
| --- | --- |
| B1 | binds |
| B2 | no binding |
| B3 | no binding |

Each binder was assayed against PERK10 cytosolic kinase domain (Arabidopsis thaliana) (UniProt Q9C660) in the same assay as above.

| Binder | binding |
| --- | --- |
| B1 | binds |
| B2 | no binding |
| B3 | no binding |
